Results published in the supplement of paper PMC8728848.
The other results are listed elsewhere or left out.

Experiments:
Test in all cases: glycan array binding signal (z-score within array); higher = stronger binding
Conditions in all cases: glycan notation: IUPAC condensed, linker removed
[1] = target: Gal(b1-4)GlcNAc(b1-3)Gal(b1-4)GlcNAc(b1-2)[Gal(b1-4)GlcNAc(b1-3)Gal(b1-4)GlcNAc(b1-6)]Man(a1-6)[Gal(b1-4)GlcNAc(b1-3)Gal(b1-4)GlcNAc(b1-2)Man(a1-3)]Man(b1-4)GlcNAc(b1-4)[Fuc(a1-6)]GlcNAc
How it was run: (§1)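 From the Consortium for Functional Glycomics database, 3228 arrays were curated, keeping only those whose protein sequence was available. Binding is given as a within-array Z-score averaged across arrays sharing a protein sequence and across linkers. Negative Z-scores can be read as non-binding.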

[2] = target: Gal(b1-4)GlcNAc(b1-3)Gal(b1-4)GlcNAc(b1-3)Gal(b1-4)GlcNAc
How it was run: as §1

[3] = target: Gal(b1-4)GlcNAc(b1-3)Gal(b1-4)GlcNAc(b1-3)Gal(b1-4)GlcNAc(b1-2)Man(a1-3)[Gal(b1-4)GlcNAc(b1-3)Gal(b1-4)GlcNAc(b1-3)Gal(b1-4)GlcNAc(b1-2)Man(a1-6)]Man(b1-4)GlcNAc(b1-4)GlcNAc
How it was run: as §1

[4] = target: Gal(b1-4)GlcNAc(b1-3)Gal(b1-4)GlcNAc(b1-3)Gal(b1-4)GlcNAc(b1-2)Man(a1-3)[Gal(b1-4)GlcNAc(b1-3)Gal(b1-4)GlcNAc(b1-3)Gal(b1-4)GlcNAc(b1-2)Man(a1-6)]Man(b1-4)GlcNAc(b1-4)[Fuc(a1-6)]GlcNAc
How it was run: as §1

[5] = target: Gal(b1-4)GlcNAc(b1-3)Gal(b1-4)GlcNAc(b1-3)Gal(b1-4)GlcNAc(b1-2)[Gal(b1-4)GlcNAc(b1-3)Gal(b1-4)GlcNAc(b1-3)Gal(b1-4)GlcNAc(b1-6)]Man(a1-6)[Gal(b1-4)GlcNAc(b1-3)Gal(b1-4)GlcNAc(b1-3)Gal(b1-4)GlcNAc(b1-2)Man(a1-3)]Man(b1-4)GlcNAc(b1-4)[Fuc(a1-6)]GlcNAc
How it was run: as §1

[6] = target: Gal(b1-4)GlcNAc(b1-3)Gal(b1-4)GlcNAc(b1-3)Gal(b1-4)GlcNAc(b1-3)Gal(b1-4)GlcNAc(b1-2)Man(a1-3)[Gal(b1-4)GlcNAc(b1-3)Gal(b1-4)GlcNAc(b1-3)Gal(b1-4)GlcNAc(b1-3)Gal(b1-4)GlcNAc(b1-2)Man(a1-6)]Man(b1-4)GlcNAc(b1-4)GlcNAc
How it was run: as §1

[7] = target: Gal(b1-4)GlcNAc(b1-3)Gal(b1-4)GlcNAc(b1-3)Gal(b1-4)GlcNAc(b1-3)Gal(b1-4)GlcNAc(b1-2)Man(a1-3)[Gal(b1-4)GlcNAc(b1-3)Gal(b1-4)GlcNAc(b1-3)Gal(b1-4)GlcNAc(b1-3)Gal(b1-4)GlcNAc(b1-2)Man(a1-6)]Man(b1-4)GlcNAc(b1-4)[Fuc(a1-6)]GlcNAc
How it was run: as §1

[8] = target: Gal(b1-4)GlcNAc(b1-3)Gal(b1-4)GlcNAc(b1-3)Gal(b1-4)GlcNAc(b1-3)Gal(b1-4)GlcNAc(b1-2)[Gal(b1-4)GlcNAc(b1-3)Gal(b1-4)GlcNAc(b1-3)Gal(b1-4)GlcNAc(b1-3)Gal(b1-4)GlcNAc(b1-6)]Man(a1-6)[Gal(b1-4)GlcNAc(b1-3)Gal(b1-4)GlcNAc(b1-3)Gal(b1-4)GlcNAc(b1-3)Gal(b1-4)GlcNAc(b1-2)Man(a1-3)]Man(b1-4)GlcNAc(b1-4)[Fuc(a1-6)]GlcNAc
How it was run: as §1

[9] = target: Gal(b1-4)GlcNAc(b1-3)Gal(b1-4)GlcNAc(b1-3)Gal(b1-4)GlcNAc(b1-3)Gal(b1-4)GlcNAc(b1-3)Gal(b1-4)GlcNAc(b1-2)Man(a1-3)[Gal(b1-4)GlcNAc(b1-3)Gal(b1-4)GlcNAc(b1-3)Gal(b1-4)GlcNAc(b1-3)Gal(b1-4)GlcNAc(b1-3)Gal(b1-4)GlcNAc(b1-2)Man(a1-6)]Man(b1-4)GlcNAc(b1-4)GlcNAc
How it was run: as §1

[10] = target: Gal(b1-4)GlcNAc(b1-3)Gal(b1-4)GlcNAc(b1-3)Gal(b1-4)GlcNAc(b1-3)Gal(b1-4)GlcNAc(b1-3)Gal(b1-4)GlcNAc(b1-2)Man(a1-3)[Gal(b1-4)GlcNAc(b1-3)Gal(b1-4)GlcNAc(b1-3)Gal(b1-4)GlcNAc(b1-3)Gal(b1-4)GlcNAc(b1-3)Gal(b1-4)GlcNAc(b1-2)Man(a1-6)]Man(b1-4)GlcNAc(b1-4)[Fuc(a1-6)]GlcNAc
How it was run: as §1

[11] = target: Gal(b1-4)GlcNAc(b1-3)Gal(b1-4)GlcNAc(b1-3)Gal(b1-4)GlcNAc(b1-3)Gal(b1-4)GlcNAc(b1-3)Gal(b1-4)GlcNAc(b1-2)[Gal(b1-4)GlcNAc(b1-3)Gal(b1-4)GlcNAc(b1-3)Gal(b1-4)GlcNAc(b1-3)Gal(b1-4)GlcNAc(b1-3)Gal(b1-4)GlcNAc(b1-6)]Man(a1-6)[Gal(b1-4)GlcNAc(b1-3)Gal(b1-4)GlcNAc(b1-3)Gal(b1-4)GlcNAc(b1-3)Gal(b1-4)GlcNAc(b1-3)Gal(b1-4)GlcNAc(b1-2)Man(a1-3)]Man(b1-4)GlcNAc(b1-4)[Fuc(a1-6)]GlcNAc
How it was run: as §1

[12] = target: Gal(b1-4)GlcNAc(b1-3)Gal(b1-4)GlcNAc(b1-3)Gal(b1-4)GlcNAc(b1-3)Gal(b1-4)GlcNAc(b1-3)Gal(b1-4)GlcNAc(b1-3)Gal(b1-4)GlcNAc(b1-2)Man(a1-3)[Gal(b1-4)GlcNAc(b1-3)Gal(b1-4)GlcNAc(b1-3)Gal(b1-4)GlcNAc(b1-3)Gal(b1-4)GlcNAc(b1-3)Gal(b1-4)GlcNAc(b1-3)Gal(b1-4)GlcNAc(b1-2)Man(a1-6)]Man(b1-4)GlcNAc(b1-4)GlcNAc
How it was run: as §1

[13] = target: Gal(b1-4)GlcNAc(b1-3)Gal(b1-4)GlcNAc(b1-3)GalNAc
How it was run: as §1

[14] = target: Gal(b1-4)GlcNAc(b1-3)Gal(b1-4)GlcNAc(b1-3)[Gal(b1-4)GlcNAc(b1-3)Gal(b1-4)GlcNAc(b1-6)]GalNAc
How it was run: as §1

[15] = target: Gal(b1-4)GlcNAc(b1-3)Gal(b1-4)GlcNAc(b1-6)[Gal(b1-3)]GalNAc
How it was run: as §1

[16] = target: Gal(b1-4)GlcNAc(b1-3)Gal(b1-4)[Fuc(a1-3)]GlcNAc(b1-3)Gal(b1-4)[Fuc(a1-3)]GlcNAc
How it was run: as §1

[17] = target: Gal(b1-4)GlcNAc(b1-3)GalNAc
How it was run: as §1

[18] = target: Gal(b1-4)GlcNAc(b1-3)[Fuc(a1-3)GlcNAc(b1-6)]Gal(b1-4)Glc
How it was run: as §1

[19] = target: Gal(b1-4)GlcNAc(b1-3)[Gal(b1-4)GlcNAc(b1-6)]Gal(b1-4)GlcNAc
How it was run: as §1

[20] = target: Gal(b1-4)GlcNAc(b1-3)[GlcNAc(b1-6)]Gal(b1-4)GlcNAc
How it was run: as §1

[21] = target: Gal(b1-4)GlcNAc(b1-6)Gal(b1-4)GlcNAc
How it was run: as §1

[22] = target: Gal(b1-4)GlcNAc(b1-6)GalNAc
How it was run: as §1

[23] = target: Gal(b1-4)GlcNAc(b1-6)[Gal(b1-3)]GalNAc
How it was run: as §1

[24] = target: Gal(b1-4)GlcNAc(b1-6)[Gal(b1-4)GlcNAc(b1-3)]GalNAc
How it was run: as §1

[25] = target: Gal(b1-4)GlcNAc6P
How it was run: as §1

[26] = target: Gal(b1-6)Gal
How it was run: as §1

[27] = target: Gal3S(b1-3)GalNAc
How it was run: as §1

[28] = target: Gal3S(b1-3)GlcNAc
How it was run: as §1

[29] = target: Gal3S(b1-3)[Fuc(a1-4)]GlcNAc
How it was run: as §1

[30] = target: Gal3S(b1-4)Glc
How it was run: as §1

B1: GroEL (Clostridium difficile), Q18CT5 (protein)
chain: MAKEIKFSEETRRALEAGVNKLADTVKVTLGPKGRNVILDKKFGSPLITNDGVTIAKEIELEDRFENMGAQLVKEVATKTNDVAGDGTTTATVLAQAIIREGLKNVTAGANPILLRKGIQKAVTVAVEELKNQSRIVETQEAISQVASISAGDEEVGKLIAEAMEIVGKDGVITVEESQTMNTELDAVEGMQFDRGFVSAYMVTDVDKMEAVLNDPYILITDKKISNIQELLPVLEQIVQQGKKLLIIAEDVEGEALSTLVVNKLRGTFDVVAVKAPGFGDRRKEMLQDIAILTGAQVISEELGYDLKEADLSMLGRASSVKVTKESTTIVDGSGDKKAIEDRVTQIKHQVEQTTSDFDREKLMERLAKLAGGVAVVKVGAATEVELKERKLRIEDALNATRAAVEEGIVAGGGTAFVSVIPAIGTLIESLEGEVKLGAQIVKKALEEPLRQIAINAGLEGAVIVQNVVNSEAETGFDALNEKYVNMIEAGIVDPTKVSRSALQNAASIASTFLTTEAAVADLPEKEDAGMPGMGGGMPGMM
In the case of B1, the “glycan array binding signal (z-score)” value [1] is reported as 0.994, the “glycan array binding signal (z-score)” value [2] is reported as 1.42 and the “glycan array binding signal (z-score)” value [3] is reported as 0.878. For the same binder, the “glycan array binding signal (z-score)” value [4] was 0.085, the “glycan array binding signal (z-score)” value [5] was 3.44 and the “glycan array binding signal (z-score)” value [6] was -1.18. The “glycan array binding signal (z-score)” value [7] was 0.552, the “glycan array binding signal (z-score)” value [8] was 1.89 and the “glycan array binding signal (z-score)” value [9] was 0.162. For the same binder, the “glycan array binding signal (z-score)” value [10] was 0.646, the “glycan array binding signal (z-score)” value [11] was 1.02 and the “glycan array binding signal (z-score)” value [12] was 1.99. The “glycan array binding signal (z-score)” value [13] was -1.96, the “glycan array binding signal (z-score)” value [14] was 1.2 and the “glycan array binding signal (z-score)” value [15] was 2.77. For the same binder, the “glycan array binding signal (z-score)” value [16] was -1.13, the “glycan array binding signal (z-score)” value [17] was -0.517 and the “glycan array binding signal (z-score)” value [18] was -0.128. The “glycan array binding signal (z-score)” value [19] was -0.741, the “glycan array binding signal (z-score)” value [20] was -0.235 and the “glycan array binding signal (z-score)” value [21] was -0.638. For the same binder, the “glycan array binding signal (z-score)” value [22] was -0.35, the “glycan array binding signal (z-score)” value [23] was -1.14 and the “glycan array binding signal (z-score)” value [24] was -0.427. For the same binder, the “glycan array binding signal (z-score)” value [25] was 0.468, the “glycan array binding signal (z-score)” value [26] was -0.099 and the “glycan array binding signal (z-score)” value [27] was 2.59. For the same binder, the “glycan array binding signal (z-score)” value [28] was 0.025, the “glycan array binding signal (z-score)” value [29] was -0.243 and the “glycan array binding signal (z-score)” value [30] was 0.546.
